Results are given in words; binding and its absence hold for the method and conditions named. In cells and extracts the contact can be indirect. Some binding calls cover weakened binding; strength is not graded here.
Target: CENP-F (co-immunoprecipitation of supplementary figure S8) (UniProt P49454)
Test: co-IP; co-immunoprecipitation shown in online supplementary figure S8; cells and antibody not given

Amino acid sequences for entries named in this document (tags omitted).
UniProt P49454: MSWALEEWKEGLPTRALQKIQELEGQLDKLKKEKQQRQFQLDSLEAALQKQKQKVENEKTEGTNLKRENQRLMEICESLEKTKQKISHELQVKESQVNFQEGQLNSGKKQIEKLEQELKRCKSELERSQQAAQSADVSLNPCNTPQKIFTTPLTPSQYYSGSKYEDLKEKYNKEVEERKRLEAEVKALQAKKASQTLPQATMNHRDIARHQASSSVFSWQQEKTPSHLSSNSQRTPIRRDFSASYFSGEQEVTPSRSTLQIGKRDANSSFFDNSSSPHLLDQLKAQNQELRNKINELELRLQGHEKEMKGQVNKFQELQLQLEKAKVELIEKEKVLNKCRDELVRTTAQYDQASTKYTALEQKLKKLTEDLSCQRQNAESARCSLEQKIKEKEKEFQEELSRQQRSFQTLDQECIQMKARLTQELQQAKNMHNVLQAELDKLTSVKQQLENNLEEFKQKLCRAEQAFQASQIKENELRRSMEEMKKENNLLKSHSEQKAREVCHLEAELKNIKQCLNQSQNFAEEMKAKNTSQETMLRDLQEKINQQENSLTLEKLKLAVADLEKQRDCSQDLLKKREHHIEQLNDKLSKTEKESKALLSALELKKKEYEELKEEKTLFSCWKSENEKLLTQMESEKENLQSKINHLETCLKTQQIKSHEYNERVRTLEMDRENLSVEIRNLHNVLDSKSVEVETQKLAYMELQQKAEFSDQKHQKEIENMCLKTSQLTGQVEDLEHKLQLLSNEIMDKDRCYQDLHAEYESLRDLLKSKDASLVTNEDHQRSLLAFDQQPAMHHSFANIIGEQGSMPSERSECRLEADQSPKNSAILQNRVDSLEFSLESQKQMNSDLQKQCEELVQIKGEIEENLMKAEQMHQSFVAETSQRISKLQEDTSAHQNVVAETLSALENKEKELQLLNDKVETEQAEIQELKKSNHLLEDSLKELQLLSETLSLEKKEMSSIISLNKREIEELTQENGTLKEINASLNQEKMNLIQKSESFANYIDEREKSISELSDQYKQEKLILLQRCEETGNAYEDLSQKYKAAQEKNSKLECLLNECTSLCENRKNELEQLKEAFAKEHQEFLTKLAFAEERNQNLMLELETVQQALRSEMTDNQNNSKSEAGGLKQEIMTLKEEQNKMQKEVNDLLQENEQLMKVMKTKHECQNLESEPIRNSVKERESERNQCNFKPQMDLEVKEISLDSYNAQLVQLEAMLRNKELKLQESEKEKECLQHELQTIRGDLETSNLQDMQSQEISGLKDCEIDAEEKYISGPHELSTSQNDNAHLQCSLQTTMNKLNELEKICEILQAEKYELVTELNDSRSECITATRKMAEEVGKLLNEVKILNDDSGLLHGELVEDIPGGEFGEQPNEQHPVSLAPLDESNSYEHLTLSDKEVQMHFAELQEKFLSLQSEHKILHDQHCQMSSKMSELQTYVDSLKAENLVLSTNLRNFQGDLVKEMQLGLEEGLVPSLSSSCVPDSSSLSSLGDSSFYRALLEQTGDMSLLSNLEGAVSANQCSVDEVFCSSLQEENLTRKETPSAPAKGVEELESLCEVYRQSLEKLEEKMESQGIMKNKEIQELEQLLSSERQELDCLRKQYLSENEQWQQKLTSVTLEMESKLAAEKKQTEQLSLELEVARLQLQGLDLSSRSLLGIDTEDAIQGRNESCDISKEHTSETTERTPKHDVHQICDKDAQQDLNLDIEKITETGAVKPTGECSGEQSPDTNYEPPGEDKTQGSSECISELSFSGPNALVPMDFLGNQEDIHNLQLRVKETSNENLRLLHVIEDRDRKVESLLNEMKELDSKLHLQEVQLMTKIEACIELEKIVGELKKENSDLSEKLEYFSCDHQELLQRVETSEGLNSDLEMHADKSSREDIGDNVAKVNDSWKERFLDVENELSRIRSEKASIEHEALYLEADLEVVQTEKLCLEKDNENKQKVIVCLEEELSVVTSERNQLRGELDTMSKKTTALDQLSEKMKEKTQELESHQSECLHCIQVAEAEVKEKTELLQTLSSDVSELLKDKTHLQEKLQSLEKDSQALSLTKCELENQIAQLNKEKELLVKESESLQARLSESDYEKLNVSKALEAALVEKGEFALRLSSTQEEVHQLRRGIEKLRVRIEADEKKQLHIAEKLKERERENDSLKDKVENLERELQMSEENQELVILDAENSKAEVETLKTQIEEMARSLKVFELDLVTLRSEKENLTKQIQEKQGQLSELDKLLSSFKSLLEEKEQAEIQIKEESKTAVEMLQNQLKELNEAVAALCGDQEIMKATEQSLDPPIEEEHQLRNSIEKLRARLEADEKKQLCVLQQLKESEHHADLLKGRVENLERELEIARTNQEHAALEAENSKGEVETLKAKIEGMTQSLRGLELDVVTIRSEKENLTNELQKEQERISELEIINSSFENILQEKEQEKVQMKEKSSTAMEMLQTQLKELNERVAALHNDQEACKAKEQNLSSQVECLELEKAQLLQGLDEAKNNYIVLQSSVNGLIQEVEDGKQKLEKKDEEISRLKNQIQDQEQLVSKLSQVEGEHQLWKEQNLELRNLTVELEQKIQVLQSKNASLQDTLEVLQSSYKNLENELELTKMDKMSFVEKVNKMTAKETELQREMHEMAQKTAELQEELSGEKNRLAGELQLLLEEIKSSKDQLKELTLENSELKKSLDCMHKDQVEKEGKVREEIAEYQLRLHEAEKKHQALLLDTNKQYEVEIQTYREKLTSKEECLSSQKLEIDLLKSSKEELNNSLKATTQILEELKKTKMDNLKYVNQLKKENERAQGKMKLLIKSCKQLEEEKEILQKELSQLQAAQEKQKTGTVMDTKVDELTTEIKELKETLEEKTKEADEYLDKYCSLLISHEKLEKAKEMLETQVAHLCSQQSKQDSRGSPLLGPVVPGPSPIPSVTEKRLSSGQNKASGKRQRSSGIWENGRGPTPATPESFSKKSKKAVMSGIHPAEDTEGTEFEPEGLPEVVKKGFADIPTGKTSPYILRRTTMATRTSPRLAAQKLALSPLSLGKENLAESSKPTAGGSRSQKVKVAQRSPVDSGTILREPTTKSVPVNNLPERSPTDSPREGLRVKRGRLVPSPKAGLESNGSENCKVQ
UniProt Q14980: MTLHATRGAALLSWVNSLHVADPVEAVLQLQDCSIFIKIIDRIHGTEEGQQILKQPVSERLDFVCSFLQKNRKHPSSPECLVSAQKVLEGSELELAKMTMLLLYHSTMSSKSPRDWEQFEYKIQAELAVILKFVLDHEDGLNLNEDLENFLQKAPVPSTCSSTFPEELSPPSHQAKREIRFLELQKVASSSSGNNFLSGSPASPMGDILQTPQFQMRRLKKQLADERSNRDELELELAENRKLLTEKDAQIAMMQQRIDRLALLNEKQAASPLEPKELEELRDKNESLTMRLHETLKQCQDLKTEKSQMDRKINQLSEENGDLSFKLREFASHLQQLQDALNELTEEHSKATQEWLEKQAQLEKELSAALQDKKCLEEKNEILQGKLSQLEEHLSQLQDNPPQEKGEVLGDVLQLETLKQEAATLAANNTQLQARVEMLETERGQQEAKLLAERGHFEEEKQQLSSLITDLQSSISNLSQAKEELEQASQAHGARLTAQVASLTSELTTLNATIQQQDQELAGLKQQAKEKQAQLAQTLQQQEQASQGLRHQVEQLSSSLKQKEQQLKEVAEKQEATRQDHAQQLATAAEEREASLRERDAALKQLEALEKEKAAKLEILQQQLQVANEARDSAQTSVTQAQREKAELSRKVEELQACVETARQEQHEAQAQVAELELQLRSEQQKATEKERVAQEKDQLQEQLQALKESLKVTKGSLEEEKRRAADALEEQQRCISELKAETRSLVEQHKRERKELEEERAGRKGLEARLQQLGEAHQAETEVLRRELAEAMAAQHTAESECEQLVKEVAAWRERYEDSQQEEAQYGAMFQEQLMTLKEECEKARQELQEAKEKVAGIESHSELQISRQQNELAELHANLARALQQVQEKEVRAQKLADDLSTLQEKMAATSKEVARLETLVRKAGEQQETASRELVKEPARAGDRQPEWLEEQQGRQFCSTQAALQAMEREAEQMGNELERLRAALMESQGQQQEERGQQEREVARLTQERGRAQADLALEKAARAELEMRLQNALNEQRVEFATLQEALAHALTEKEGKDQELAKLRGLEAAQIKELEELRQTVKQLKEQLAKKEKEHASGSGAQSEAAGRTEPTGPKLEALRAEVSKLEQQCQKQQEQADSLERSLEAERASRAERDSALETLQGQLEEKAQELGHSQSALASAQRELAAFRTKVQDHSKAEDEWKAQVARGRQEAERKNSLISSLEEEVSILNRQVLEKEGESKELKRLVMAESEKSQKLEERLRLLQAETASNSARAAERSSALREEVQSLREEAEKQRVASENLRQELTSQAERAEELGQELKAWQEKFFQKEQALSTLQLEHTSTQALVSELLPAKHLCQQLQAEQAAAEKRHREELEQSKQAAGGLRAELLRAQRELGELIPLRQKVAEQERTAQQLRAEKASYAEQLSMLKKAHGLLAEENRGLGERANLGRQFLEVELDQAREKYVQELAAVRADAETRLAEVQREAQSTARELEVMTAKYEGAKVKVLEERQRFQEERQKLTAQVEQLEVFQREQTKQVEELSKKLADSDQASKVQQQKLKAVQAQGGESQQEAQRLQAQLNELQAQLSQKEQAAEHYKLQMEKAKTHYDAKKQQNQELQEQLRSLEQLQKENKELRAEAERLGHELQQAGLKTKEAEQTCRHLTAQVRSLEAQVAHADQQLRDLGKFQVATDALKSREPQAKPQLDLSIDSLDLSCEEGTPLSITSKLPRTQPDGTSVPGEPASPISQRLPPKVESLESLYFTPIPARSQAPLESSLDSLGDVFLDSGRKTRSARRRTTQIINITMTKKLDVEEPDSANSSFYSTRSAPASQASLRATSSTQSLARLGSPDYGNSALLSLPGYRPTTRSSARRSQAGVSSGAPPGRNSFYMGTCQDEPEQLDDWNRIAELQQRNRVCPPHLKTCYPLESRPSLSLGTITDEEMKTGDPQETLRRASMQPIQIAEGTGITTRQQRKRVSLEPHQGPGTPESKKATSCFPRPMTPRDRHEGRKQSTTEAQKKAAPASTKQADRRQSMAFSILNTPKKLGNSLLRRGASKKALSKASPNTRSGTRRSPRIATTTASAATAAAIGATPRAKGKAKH
UniProt Q8TEW0: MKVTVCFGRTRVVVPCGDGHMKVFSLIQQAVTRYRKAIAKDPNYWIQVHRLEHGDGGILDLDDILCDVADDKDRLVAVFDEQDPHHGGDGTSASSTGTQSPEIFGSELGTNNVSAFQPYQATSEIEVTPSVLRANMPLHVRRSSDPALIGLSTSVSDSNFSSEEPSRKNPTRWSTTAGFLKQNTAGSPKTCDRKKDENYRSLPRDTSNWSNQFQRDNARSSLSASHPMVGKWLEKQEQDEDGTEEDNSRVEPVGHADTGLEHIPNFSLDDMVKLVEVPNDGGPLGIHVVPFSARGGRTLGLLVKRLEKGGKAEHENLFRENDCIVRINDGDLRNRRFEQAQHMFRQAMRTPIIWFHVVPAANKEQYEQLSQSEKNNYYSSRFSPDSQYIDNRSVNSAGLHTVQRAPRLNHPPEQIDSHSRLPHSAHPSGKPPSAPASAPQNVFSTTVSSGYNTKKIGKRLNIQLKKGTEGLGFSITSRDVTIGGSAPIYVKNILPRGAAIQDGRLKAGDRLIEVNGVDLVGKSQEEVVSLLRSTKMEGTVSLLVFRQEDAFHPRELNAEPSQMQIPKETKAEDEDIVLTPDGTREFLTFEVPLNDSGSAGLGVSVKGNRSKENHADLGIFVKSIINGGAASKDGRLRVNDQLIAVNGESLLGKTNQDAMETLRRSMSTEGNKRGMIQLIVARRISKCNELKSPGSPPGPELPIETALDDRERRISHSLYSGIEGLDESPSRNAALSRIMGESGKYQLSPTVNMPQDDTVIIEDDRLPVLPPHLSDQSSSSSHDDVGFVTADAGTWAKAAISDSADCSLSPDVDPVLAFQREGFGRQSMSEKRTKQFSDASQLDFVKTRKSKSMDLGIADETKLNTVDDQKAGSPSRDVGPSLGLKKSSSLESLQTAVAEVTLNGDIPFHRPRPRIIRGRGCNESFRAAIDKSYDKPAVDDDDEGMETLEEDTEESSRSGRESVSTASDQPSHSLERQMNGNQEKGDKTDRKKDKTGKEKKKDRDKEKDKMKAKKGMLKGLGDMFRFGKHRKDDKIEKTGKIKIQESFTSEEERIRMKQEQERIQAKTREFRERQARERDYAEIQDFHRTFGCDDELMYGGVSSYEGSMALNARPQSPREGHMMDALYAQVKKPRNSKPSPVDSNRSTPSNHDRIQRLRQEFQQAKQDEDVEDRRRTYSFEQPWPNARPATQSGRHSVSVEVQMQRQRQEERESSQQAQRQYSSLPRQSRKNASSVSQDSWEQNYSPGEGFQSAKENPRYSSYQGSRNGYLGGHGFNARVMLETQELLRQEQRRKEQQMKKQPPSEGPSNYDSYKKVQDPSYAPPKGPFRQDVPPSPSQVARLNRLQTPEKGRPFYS

| binding | Substance |
| --- | --- |
| binds | NuMA (from UniProt Q14980 1-2115) |
| binds | Par 3 (from UniProt Q8TEW0 1-1356) |
| binds | p150 Glued dynactin (from UniProt Q14203-1 1-1278) |

From article PMC4345935
